Measured values as given in publication PMC5473912, “Regulation of sub-compartmental targeting and folding properties of the Prion-like protein Shadoo” (Scientific Reports, 2017).
No constants are given. Whether binding was seen depends on the method and setting. Binding seen in cells or lysates may run through a third protein. Some binding calls cover weakened binding; strength is not graded here.

The chains behind the UniProt entries cited, without tags or fusion partners. Residues count along the entry.
UniProt P14211, residues 18-416: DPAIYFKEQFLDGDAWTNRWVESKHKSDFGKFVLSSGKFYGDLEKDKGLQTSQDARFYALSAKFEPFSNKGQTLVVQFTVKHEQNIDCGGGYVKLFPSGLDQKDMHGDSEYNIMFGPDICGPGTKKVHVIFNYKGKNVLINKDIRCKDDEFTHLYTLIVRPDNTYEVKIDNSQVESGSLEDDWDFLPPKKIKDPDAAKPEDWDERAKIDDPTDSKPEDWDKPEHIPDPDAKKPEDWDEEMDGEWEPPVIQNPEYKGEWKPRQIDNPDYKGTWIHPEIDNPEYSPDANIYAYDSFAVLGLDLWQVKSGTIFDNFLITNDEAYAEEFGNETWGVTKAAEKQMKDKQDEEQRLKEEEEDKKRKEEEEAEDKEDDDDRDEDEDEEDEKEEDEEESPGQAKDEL

B1: Shadoo (Sho), mature fully glycosylated ~22 kDa isoform, endogenous mouse (natural protein, mouse (endogenous in GT1), UniProt Q8BWU1 25-122, looked up)
chain: KGGRGGARGSARGVRGGARGASRVRVRPAPRYGSSLRVAAAGAAAGAAAGVAAGLATGSGWRRTSGPGELGLEDDENGAMGGNGTDRGVYSYWAWTSG
modifications: fully N-glycosylated (complex-glycosylated)
notes: Shadoo (Sho, SPRN), mouse, the mature fully glycosylated isoform that migrates at ~22 kDa; also called mature Sho; mature glycosylated Sho; source: endogenous, GT1 lysate
B2: Shadoo (Sho), unglycosylated ~14 kDa isoform, endogenous mouse (protein, UniProt Q8BWU1 25-122)
chain: B1 chain

Biological target: Calreticulin (CRT), endogenous mouse (mouse (endogenous in GT1)) (UniProt P14211)
Test: co-IP; Calreticulin immunoprecipitated from GT1 lysates (JS buffer, 1% TX-100, 150 mM NaCl, pH 7.5) with anti-CRT Ab and protein A-Sepharose overnight at 4 °C; Sho revealed by Western blot with SPRN-R12; cells under control conditions or cholesterol depletion (βCD 10 mM, 1 h)

Row | Binder | binding
1 | B1 | binds
2 | B2 | binds
